# Source: PubChem BioAssay AID2551 (National Center for Advancing Translational Sciences (NCATS), 2010)
# Sequences of proteins named here, by UniProt entry; tags and fusion partners are left off. A change or cut given only in a name is not applied to a line headed by its entry.
# UniProt P51450: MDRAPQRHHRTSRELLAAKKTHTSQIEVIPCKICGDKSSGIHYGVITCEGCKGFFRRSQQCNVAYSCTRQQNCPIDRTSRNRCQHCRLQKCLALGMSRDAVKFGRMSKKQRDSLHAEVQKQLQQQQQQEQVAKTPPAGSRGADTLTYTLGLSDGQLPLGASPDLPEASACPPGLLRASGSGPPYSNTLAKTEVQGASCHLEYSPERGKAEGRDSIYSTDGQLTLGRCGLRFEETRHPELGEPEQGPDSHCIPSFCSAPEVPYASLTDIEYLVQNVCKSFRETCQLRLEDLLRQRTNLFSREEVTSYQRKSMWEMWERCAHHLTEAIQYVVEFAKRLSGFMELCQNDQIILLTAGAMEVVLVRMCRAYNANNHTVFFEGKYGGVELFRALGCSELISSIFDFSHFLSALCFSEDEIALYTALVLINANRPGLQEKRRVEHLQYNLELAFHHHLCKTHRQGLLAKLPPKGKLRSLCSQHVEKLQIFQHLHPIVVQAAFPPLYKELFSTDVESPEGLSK
# About 17,000 (5.5%) of roughly 310,000 compounds were called active. Inconclusive results, whose numbers are uncertain, are shown with a selection of clear calls. The call rests on the fitted dose curve; in most records, active means well fitted inhibition curve with a large enough effect; inconclusive means small, poorly fitted or top-dose-only effect, or effect the other way; inactive means no such curve, though single readings can be large or run the other way. Potencies of inconclusive entries are doubtful fits and often do not repeat.
# Molecular target: Nuclear receptor ROR-gamma (Mus musculus) (UniProt P51450)
# Test: qHTS for inhibitors of ROR gamma transcriptional activity; further: nearly all actives have a fitted effect of over 60% in size
# Conditions: Drosophila S2 Gal4-RORgamma UAS-luciferase reporter, 20 h; series mostly up to 53.6 µM
# Procedure, shortened: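 Schneider cells (Drosophila), stable Gal4 DBD–ROR gamma + UAS-luc; 1 hr cmpd preincubation; Cu2+ induction 700 uM final; 20 hr ambient; luminescence.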
# Potency means the concentration at half of the fitted maximal effect.
row,SMILES,Potency
1,COc1ccccc1C1=NOC(COc2ccc3c(C)cc(=O)oc3c2)C1 (stereo unspecified),inactive
2,CCC(=O)N1N=C(c2ccc(NS(=O)(=O)CC)cc2)CC1c1ccc(C)cc1 (stereo unspecified),inactive
3,c1ccc2c(c1)oc1c(NCCCn3ccnc3)ncnc12,"inconclusive: 0.891 µM [activator, full curve]"
4,c1ccc(C2Nc3cccc4cccc(c34)N2)cc1,"inconclusive: 11.2 µM [inhibitor, partial curve, poor fit]"
5,O=C(OCC(=O)N1CCCCCC1)c1ccc(S(=O)(=O)N2CCOCC2)cc1,inactive
6,COCCn1cnc2c(c1=O)c1nc3ccccc3nc1n2/N=C/c1cccc(OC)c1,inactive
7,COc1cc(C(=O)NC2CCN(CC(=O)NC3CCCCC3C)CC2)cc(OC)c1OC (stereo unspecified),"inconclusive: 7.94 µM [activator, partial curve]"
8,CC(=O)N(C1=C(Cl)C(=O)c2ccccc2C1=O)C1CCCCC1,active: 10 µM
9,CCc1ccc(N2CC(C)Cn3c2nc2c3c(=O)[nH]c(=O)n2C)cc1 (stereo unspecified),"inconclusive: 31.6 µM [activator, single point]"
10,COc1ccc(N2CCN(C(c3cccs3)C(C)NC(=O)c3ccco3)CC2)cc1 (stereo unspecified),"inconclusive: 6.31 µM [activator, single point]"
11,Cc1cccc(C)c1OCC(=O)N/N=C/C=C/c1ccco1,"inconclusive: 35.5 µM [inhibitor, single point]"
12,COc1ccccc1CCNC(=O)CSc1ccc(-c2ccco2)nn1,inactive
13,Cc1ccc(S(=O)(=O)N2CC=C(c3ccc(F)cc3)CC2)cc1,inactive
14,Cc1cc(C)c2c(=O)n(CC(=O)Nc3ccc(Br)c(C)c3)sc2n1,active: 12.6 µM
15,Cc1ccc(-n2c(C)cc(C(=O)COc3cccnc3[N+](=O)[O-])c2C)cc1,"inconclusive: 35.5 µM [inhibitor, single point]"
16,Cc1ccc2oc(/N=C(\N)NC(=O)C(C)(C)C)nc2c1,active: 0.0501 µM
17,Cc1cc(-c2cc(C(=O)NCc3ccccc3)on2)nc(S(C)(=O)=O)n1,active: 5.01 µM
18,c1ccc(CN2CCC(Nc3ncnc4sccc34)CC2)cc1,"inconclusive: 11.2 µM [activator, partial curve, poor fit]"
19,Cc1ccc(NC(=S)N2CCCC2)cc1C,"inconclusive: 17.8 µM [inhibitor, single point]"
20,COc1ccc(-n2c(C)cc(C(=O)CN3C(=O)c4ccccc4C3=O)c2C)cc1,"inconclusive: 35.5 µM [activator, single point]"
21,C=C[C@](C)(O)CCC1C(=C)CC(OC(C)=O)C2C(C)(C)CCCC12C (stereo partly specified),active: 1.12 µM

# Two entries drawn at random from those above, as already listed:
row,SMILES,Potency
3,c1ccc2c(c1)oc1c(NCCCn3ccnc3)ncnc12,"inconclusive: 0.891 µM [activator, full curve]"
2,CCC(=O)N1N=C(c2ccc(NS(=O)(=O)CC)cc2)CC1c1ccc(C)cc1 (stereo unspecified),inactive
